Laboratory results taken from PMC7862700.
The list shows a part of the results, in another mix than the full data. At the low end of the ranking the order means little.

molecular target: SPI1 (UniProt P17947); assay: DAPPL (digital affinity profiling via proximity ligation, sequencing); settings: 10 mM Tris-HCl pH 7.5, 50 mM NaCl, 1 mM DTT, 4% glycerol, room temperature, 30 min; GST-TFs on glutathione beads, 16-mer random dsDNA library, 0.1% …; high values mean tight binding; double strand, one strand shown; scale: fold enrichment (6-mer frequency, TF over GST control)

Row | Sequence | binding signal
1 | TCTTGC | 1.28
2 | TTCCTG | 2.64
3 | ACCGAT | 1.1
4 | TAGTTT | 1.12
5 | CGCTCC | 1.29
6 | ATCTTT | 1.21
7 | CACGAA | 1.06
8 | ATTCCC | 1.34
9 | CACTCT | 1.34
10 | TCGCAC | 1.13
11 | ATCGAA | 1.13
12 | TTGCGG | 1.61
13 | TGTGTT | 0.94
14 | CAACCA | 1.11
15 | TGCACT | 1.68
16 | ATCTGA | 0.969
17 | GTCCTA | 1.16
18 | CTCAAA | 1.29

Random excerpt: two entries already listed, in no set order.
Row | Sequence | binding signal
12 | TTGCGG | 1.61
11 | ATCGAA | 1.13

(next part)

Row | Sequence | binding signal
19 | TAAAAT | 1.25
20 | AACATA | 1.21
21 | TACCGA | 1.12
22 | GTACTT | 1.94
23 | CGACCG | 1.06
24 | TTGCGC | 1.06
25 | ACACGA | 1.07
26 | AGCTTT | 1.16
27 | TCGCTA | 1.04
28 | TTTGCT | 1.21
29 | ACAGAT | 0.962
30 | GTGCTT | 1.33
31 | ACATCA | 1.13
32 | CTTCTA | 1.41
33 | CCTAAA | 1.25
34 | AGCTTC | 1.74
35 | CCATAT | 1.16
